Reference: article PMC6168459
Results are given in words; binding and its absence hold for the method and conditions named.

Amino acid sequences for entries named in this document (tags omitted). A change or cut given only in a name is not applied to a line headed by its entry.
UniProt P11413: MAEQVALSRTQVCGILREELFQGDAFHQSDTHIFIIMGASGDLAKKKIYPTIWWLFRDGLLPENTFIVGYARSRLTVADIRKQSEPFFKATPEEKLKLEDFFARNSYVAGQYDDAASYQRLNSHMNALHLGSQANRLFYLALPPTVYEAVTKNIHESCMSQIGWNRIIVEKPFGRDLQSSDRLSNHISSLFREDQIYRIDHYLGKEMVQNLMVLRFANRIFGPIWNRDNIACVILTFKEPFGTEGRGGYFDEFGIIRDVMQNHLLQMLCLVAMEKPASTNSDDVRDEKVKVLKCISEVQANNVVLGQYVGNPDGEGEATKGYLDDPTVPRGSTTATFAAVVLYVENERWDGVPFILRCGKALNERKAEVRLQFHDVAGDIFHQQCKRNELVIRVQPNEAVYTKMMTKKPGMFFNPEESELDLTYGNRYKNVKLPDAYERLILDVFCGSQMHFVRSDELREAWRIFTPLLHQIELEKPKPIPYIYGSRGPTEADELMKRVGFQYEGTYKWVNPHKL

Molecular target: Canton G6PD variant (R459L) (human) (UniProt P11413)
Assay: condition: only with 10 mM G6P (removes the structural NADP+); SEC; size-exclusion FPLC, calibrated Superdex 75 10/300 GL; 200 ug purified Canton G6PD incubated with 10 mM G6P to remove the structural NADP+; both purified

binding: no binding
Substance: Canton G6PD variant (R459L) (from UniProt P11413 1-515) (enzyme)
